According to PubChem BioAssay AID1347423 (Functional Genomics Laboratory (NCATS/FGL), 2020):
Among all 52,000 sequences or so, about 210 (0.4%) were called active.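 Rule for the calls: active = gene whose silencing raises cell survival under the drug, median off-target-corrected z-score across its silencing RNAs 2 or more; inactive = the rest.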 This is one part of the list.

Test: Resistance to Poly (ADP-Ribose) Polymerase inhibitor: Gene Identification via Genome-wide siRNA Screen
Conditions: mouse BRCA2 R2336H ES cells, olaparib, CellTiter-Glo viability; active compounds read high
In short: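 Genome-wide siRNA screen (3 siRNAs/gene, 20 nM) in mouse ES cells carrying hypomorphic BRCA2 R2336H; olaparib 500 nM added 48 h post-transfection, CellTiter-Glo viability 72 h later. Normalized to plate-median negative control; MAD z-scores, gene median, seed-adjusted.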

Sequence | z-score
GGAGGACAUAUAGCUGAUUTT against Ctdsp2 | inactive: 2.37
GGUUGCUCAGAUUCAGAAUTT against 5830446M03Rik | inactive: -2.62
CGAGAACAGUUUGUACAAGTT against Serpinh1 | inactive: 0.414
GGAUGUUUCAGACAAGCUCTT against Olfr156 | inactive: -1.33
GGUUGAAUUGGAGAAGAUUTT against Pcnt2 | inactive: -2.06
GGAAUUCAAUCAGUUUGCUTT against Dysf | inactive: 0.0588
GAUGUAGAGUUUGGAAUGATT against Psmb10 | inactive: 2.43
GGGUGCAUCCCAUUCUCUUTT against Pld1 | inactive: 0.0435
GCUCCUAGGAACUUGGUUATT against Pacsin2 | active: 2.36
GGGCUUUAUAAGACAGUCUTT against A730012O14Rik | inactive: -1.56
CCCAACAAGAGUAUCUAUGTT against Foxh1 | inactive: -0.653
CGAAGUCGUGGCAAUGAUUTT against Hirip5 | inactive: 0.567
GGAGGUUCGAAGCUCGAUCTT against Trim28 | inactive: -0.13
GCUAGUGCUUUUAACUCUATT against Csprs | inactive: 0.649
GCAGGAAGCCCAGUAAAGUTT against Figla | inactive: 1.3
GGGAGAACUUACAAAAAGATT against BC068281 | inactive: -0.841
GGCCCUAGAUUUUUAUGGGTT against Pten | inactive: 0.42
CGACUUAAAUUGCUUGUGATT against Gas1 | inactive: -1.35
GUCUGGAUAUUUGACACUATT against BC027828 | inactive: 1.02
GGGUGCUAAAGAAUGUAUUTT against 9330182L06Rik | inactive: -0.702
GCAUGUACCCUCUUUGUAGTT against Gjb6 | inactive: -0.174
GGAUUACCACAAAUCUGAATT against 4930517G15Rik | inactive: -0.483
CCUGCAAAUGAUACCACCGTT against Olfr734 | inactive: 1.08
GGCUGAGCUGGAAAUCCAGTT against Aprt | inactive: 0.228
GGAAAUUUGGUGAGCAUUUTT against Synj2bp | inactive: 0.168
GCACGGAGCCAAAUAAUCUTT against Rpl28 | inactive: -0.911
GGGCUUCACUAAUGUCAAGTT against Rgs19ip1 | inactive: 0.739
GGAGGUCCUAGAGUACAAUTT against Fdps | inactive: 0.428
GCCCAAACUCAAGCAAGUCTT against Trpm3 | inactive: -2.79

Individual results from the entries so far.
Entry for GGGAGAACUUACAAAAAGATT against BC068281 under z-score: inactive: -0.841
Entry for GGCUGAGCUGGAAAUCCAGTT against Aprt under z-score: inactive: 0.228
